According to article PMC12040169 (PLOS Biology, 2025):
The other results are listed elsewhere or left out.

tested on: T1, CTL2-GFP (C. trachomatis L2/434/Bu, GFP-expressing); set-up: species or system HeLa; Intracellular C. trachomatis growth in HeLa cells, bulk GFP fluorescence relative to DMSO; conditions: bulk GFP, single well; 28.5 h, 10 µM; inhibitor
T1 construct: L2/434/Bu, GFP-expressing

Structure (SMILES)	% of control remaining [%]
COc1ccc(C(=O)O)cc1S(=O)(=O)N1CCCCCC1 [CBK261742]	100
CCn1c(SCC(=O)Nc2ccc(OC)c(Cl)c2)nnc1-c1ccccc1O [CBK268021]	109.888
COc1ccc2cc(/C=C(\C#N)c3nc(-c4cc5c(ccc6ccccc65)oc4=O)cs3)c(Cl)nc2c1 [CBK261636]	100
Cc1ccc(C(O)CN(C)Cc2c(C)nn(C)c2C)c(C)c1 (centres unmarked) [CBK282939]	147.261
CC(=O)N1CCCN(C(=O)c2ncoc2-c2ccc(F)cc2)CC1 [CBK282398]	144.109
Cc1cnc2c(Cl)c(C(=O)NCC(F)(F)F)nn2c1 [CBK307391]	140.351
CCc1ccc(/C=N/N2CCN(Cc3cccc4ccccc34)CC2)cc1 [CBK262986]	132.881
Cc1coc(C)c1C(=O)CC1(O)C(=O)N(CCc2ccccc2)c2ccccc21 (centres unmarked) [CBK293975]	120.33
Cc1cc(Cl)c(S(=O)(=O)Nc2ccc(Oc3ccccc3)cc2)cc1OCC(N)=O [CBK266583]	128.962
OC1(Cn2ccc3ncccc32)CCN(Cc2ccccc2F)CC1 [CBK284752]	113.827
O=C(O)c1csc(-c2ccc(Cl)cc2Cl)n1 [CBK067777]	128.432
Cc1nccn1Cc1ccccc1C(=O)NCCn1ccnc1 [CBK281580]	133.47
Cc1cc2c(o1)c1cnn(CC(=O)N3CCCCC3)c(=O)c1n2C [CBK284217]	140.892
O=C1CCC(=O)N1CCOc1nccnc1N1CCN(Cc2ccc(Cl)c(Cl)c2)CC1 [CBK084287]	112.683
Cc1noc2nc(C3CCN(C(=O)C(C)C)CC3)cc(C(F)F)c12 [CBK285305]	134.178
CC1(OCCN2CCOCC2)SC(NC2CC3CCC2C3)=NC1=O (centres unmarked) [CBK116313]	141.082
CN1CCC(N[C@H]2C[C@@H](Cc3cc(CCO)on3)C2(C)C)CC1 [CBK289253]	153.546
CCOCc1ccc(C(=O)N2CCNC(=O)C2Cc2ccc(-c3cccs3)cc2)cc1 (centres unmarked) [CBK285811]	94.0205
CC(=O)Nc1ccc(S(=O)(=O)N2CCN(C(=O)COc3ccc(Br)cc3)CC2)cc1 [CBK264234]	100
CCOC(=O)c1cccnc1-c1ccc(Cl)c(Cl)c1 [CBK149241]	128.12
CC(C)(C)NC(=O)CN1C(=O)N2CCCN=C2c2ccccc21 [CBK284404]	110.074
COc1ccc(CCNC(=S)N2CCN(c3ccccn3)CC2)cc1OC [CBK266897]	139.328
O=C1NC(c2cccnc2)Nc2sc3c(c21)CCCC3 (centres unmarked) [CBK072377]	127.511
COC(=O)N1CCN(c2ccccc2)CC1 [CBK200414]	104.01
CN(C(=O)CN1C2CCC1CC(O)(c1ccco1)C2)C1CCCCC1 (centres unmarked) [CBK284108]	122.866
O=[N+]([O-])c1ccccc1OCCCn1cnc2ccccc21 [CBK267820G]	116.625
O=C(O)CC(NCc1ccco1)C(=O)Nc1cccc(F)c1 (centres unmarked) [CBK286910]	111.418

Grouped by structure, those above with fluorine
Structure (SMILES)	% of control remaining [%]
CC(=O)N1CCCN(C(=O)c2ncoc2-c2ccc(F)cc2)CC1 [CBK282398]	144.109
Cc1cnc2c(Cl)c(C(=O)NCC(F)(F)F)nn2c1 [CBK307391]	140.351
OC1(Cn2ccc3ncccc32)CCN(Cc2ccccc2F)CC1 [CBK284752]	113.827
Cc1noc2nc(C3CCN(C(=O)C(C)C)CC3)cc(C(F)F)c12 [CBK285305]	134.178
O=C(O)CC(NCc1ccco1)C(=O)Nc1cccc(F)c1 (centres unmarked) [CBK286910]	111.418

Following part.

Structure (SMILES)	% of control remaining [%]
CC(C)(C)OC(=O)N1CCCC(C(=O)NC(C(N)=O)c2ccccc2)C1 (centres unmarked) [CBK305766]	114.636
CCOc1cc(C)c(Cl)cc1S(=O)(=O)NCc1ccccn1 [CBK268047]	112.694
COc1ccc(CN2CCN(c3ccccc3F)CC2)cc1OCc1ccccc1 [CBK261900]	84.819
O=C(O)c1cccc(NS(=O)(=O)CC(F)(F)F)c1 [CBK155712]	98.2686
FC(F)(F)c1cccc(OCc2nnn[nH]2)c1 [CBK269466]	113.965
COc1cc(CNc2nc(-c3cccc4ccccc34)cn3ccnc23)cc(OC)c1OC [CBK037397]	144.07
COc1ccc(NC(=O)c2cnc3sc(C)cn3c2=O)c(OC)c1 [CBK287712]	130.887
CC12CN(Cc3ccccc3)CC1NC(=O)c1ccccc1C2N (centres unmarked) [CBK282850]	100.811
O=C(CCc1cccnc1)NC(Cc1ccsc1)c1nccs1 (centres unmarked) [CBK284665]	161.65
COc1cc(CN2CCC(C(=O)NC(c3ccc(Cl)cc3)c3ccsc3)CC2)cc(OC)c1 (centres unmarked) [CBK147962]	104.323
CC1CCc2c(C(=O)N3CCC4(C3)NC(=O)NC4=O)csc2C1 (centres unmarked) [CBK304290]	136.896
CN(C(=O)c1cc(-c2cccs2)[nH]n1)c1ccccc1 [CBK288115]	133.295
O=C(Nc1nc2c(s1)CCCCC2)C1CN(C(=O)Cc2ccc(F)cc2)C1 [CBK285904]	133.457
O=C(c1ccccc1)N1C[C@H](c2ccc(F)cc2)[C@H]2CN(CCc3ccccc3)CC[C@H]21 [CBK286291]	146.181
O=C1Nc2ccc(-c3ccccc3F)cc2C(=O)N2CCN(C(=O)c3cccnc3)C[C@H]12 [CBK289591]	85.9122
Cc1cc(C)n(CCN2CCC(N(C)Cc3nnc(C)n3C)C2)n1 (centres unmarked) [CBK304449]	178.809
CC(C)CNc1nccnc1-c1ccc(Cl)cc1 [CBK088738]	113.236
Cc1csc(C(Cc2ccsc2)NC(=O)CC2CCCO2)n1 (centres unmarked) [CBK282227]	135.969
CCN1CCN(c2ncnc3sc(C)c(C)c23)CC1 [CBK288101]	148.668
O=C(Cn1cc(C(=O)NC2CCCCC2)ccc1=O)NCC1(c2ccccc2Cl)CC1 [CBK286101]	133.076
COc1ccc(-c2cnc(N)c(-c3ccc(C=O)cc3)n2)cn1 [CBK064096]	171.616
COCC1CCCN1C(=O)c1cnn2c(C)c(Cc3cccc(C#N)c3)c(C)nc12 (centres unmarked) [CBK162099]	118.155
CC(=O)NCCn1cc2c(n1)[C@H]1CN(C(=O)CC(C)(C)C)C[C@H]1CC2 [CBK284592]	121.41
COc1ccc(CN2CCCN(C(=O)c3cccc(C#N)c3)CC2)cc1 [CBK305281]	122.167
CCOc1n[s+]([O-])nc1Nc1cc(Cl)cc(Cl)c1 (centres unmarked) [CBK007897]	101.741
Cc1cccc(C2(O)CCN(C(=O)CCCc3ccncc3)CC2)c1 [CBK282506]	96.1635
CC(C)(C)S(=O)(=O)Cc1noc(-c2ccc(Cl)nc2)n1 [CBK089825]	99.7839

Structure (SMILES)	% of control remaining [%]
O=C(O)c1ccc(-c2ccc(N3CCN(C(=O)c4ccco4)CC3)nc2)cc1 [CBK037700]	113.565
COc1ccc2c(c1)CC(C(=O)N1CCc3sccc3C1c1cccs1)CO2 (centres unmarked) [CBK285628]	55.0261
O=C1CN(c2nc(-c3ccncc3)nc3ccccc23)CCN1 [CBK305805]	200.742
CCOc1cc(OCC)cc(C(=O)N2CCC3(CC2)CC(=O)c2cc(OCCN(C)C)ccc2O3)c1 [CBK169003T]	129.929
CNC(=O)CN(C)Cc1c(C(=O)N2CCOCC2)nc2c(C)cccn12 [CBK307128]	114.342
Cc1cccc(-c2noc([C@@H]3C[C@@H](O)CN3Cc3ccccn3)n2)c1 [CBK288837]	134.913
Cc1ccc(S(=O)(=O)NC2c3cccc4cccc(c34)C2Sc2ccccn2)cc1 (centres unmarked) [CBK265840]	91.2585
Cc1ccc(S(=O)(=O)N2CCC(C(=O)O)CC2)cc1C(=O)O [CBK266636]	133.687
CC(NC(=O)CSCc1ccco1)c1ccccc1 (centres unmarked) [CBK283237]	116.928
O=C(Nc1ccccc1Cl)Nc1[nH]nc(O)c1Cc1c(Cl)cccc1Cl [CBK089367]	86.69
CC(C)[C@H](CO)n1c(=O)[nH]c2ncc(-c3ccc(OC(F)(F)F)cc3)nc21 [CBK065037]	106.935
c1ccc2cc(CCN3CCC(Oc4cncc(OCCN5CCOCC5)n4)C3)ccc2c1 (centres unmarked) [CBK084503]	138.944
O=C(c1c(F)cccc1Cl)N1CCN(Cc2ccc3c(c2)OCO3)CC1 [CBK074724]	113.246
CC(C)/C=N/N=C1\NC(=O)CS1 [CBK023706]	90.6124
OCC(O)CN1CCCC1 (centres unmarked) [CBK015457]	128.117
Cc1nc(C)n(CCc2nc3ccccc3[nH]2)n1 [CBK269364]	119.338
Cc1nonc1CN(C)C(=O)C1CC2C=CC1C21CC1 (centres unmarked) [CBK282076]	114.723
O=C(Nc1cccc2[nH]ccc12)c1ccc(Cl)cc1 [CBK159632]	97.7876
O=C(c1ccc2[nH]c(=O)[nH]c2c1)N1CCCC2(CCN(C(=O)c3cc(F)c(F)cc3F)C2)C1 (centres unmarked) [CBK131566]	104.084
CCc1nccn1CCC(=O)NC1CCN(c2ccc(F)cc2)CC1 [CBK306760]	121.855
CC(C)C(=O)Nc1nnc(-c2ccc(Cl)cc2)o1 [CBK287593]	102.037
Cn1cc(NC(=O)C2CCCN(c3ncccn3)C2)cn1 (centres unmarked) [CBK304394]	118.447
Cn1cc(CNS(=O)(=O)c2ccc(F)c(Br)c2)cn1 [CBK305174]	125.028
O=C(NCc1ccccc1)C1CCCN(c2ncnc3[nH]cnc23)C1 (centres unmarked) [CBK287916]	118.401
O=C(Nc1ccccc1C(=O)O)c1cc(S(=O)(=O)Nc2ccc(F)cc2)ccc1Cl [CBK263248]	118.157
Cc1ccc2c(c1)C(=O)CC1(CCN(C(=O)Cc3c(C)[nH]c(=O)[nH]c3=O)CC1)O2 [CBK285688]	145.743
